Assay results reported in PMC3589417.
These are yes or no findings as the source states them, for the method shown. In cells and extracts the contact can be indirect. These calls come from enrichment with a bait or labelling near it, and not all partners need be listed.

Chains of the proteins cited; added tags and fusions are not shown.
UniProt P62258: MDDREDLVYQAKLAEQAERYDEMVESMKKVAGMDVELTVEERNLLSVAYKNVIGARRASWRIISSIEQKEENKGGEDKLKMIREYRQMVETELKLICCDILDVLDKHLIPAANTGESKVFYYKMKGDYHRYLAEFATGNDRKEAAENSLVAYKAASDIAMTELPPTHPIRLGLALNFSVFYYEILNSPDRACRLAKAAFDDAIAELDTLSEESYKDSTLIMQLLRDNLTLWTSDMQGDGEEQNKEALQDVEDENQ
UniProt Q13547: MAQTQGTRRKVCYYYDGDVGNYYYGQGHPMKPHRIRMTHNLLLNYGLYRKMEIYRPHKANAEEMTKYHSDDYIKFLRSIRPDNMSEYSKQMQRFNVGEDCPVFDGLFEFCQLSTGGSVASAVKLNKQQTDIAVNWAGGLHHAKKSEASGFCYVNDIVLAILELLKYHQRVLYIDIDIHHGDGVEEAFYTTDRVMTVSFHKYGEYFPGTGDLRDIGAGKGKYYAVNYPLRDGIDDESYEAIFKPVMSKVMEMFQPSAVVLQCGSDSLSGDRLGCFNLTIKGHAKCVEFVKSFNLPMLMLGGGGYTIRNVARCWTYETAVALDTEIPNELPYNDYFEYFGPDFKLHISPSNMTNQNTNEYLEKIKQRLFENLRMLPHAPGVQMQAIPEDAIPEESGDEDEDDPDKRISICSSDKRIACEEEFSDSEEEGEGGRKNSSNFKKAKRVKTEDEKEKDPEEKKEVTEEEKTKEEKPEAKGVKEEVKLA
UniProt Q16531: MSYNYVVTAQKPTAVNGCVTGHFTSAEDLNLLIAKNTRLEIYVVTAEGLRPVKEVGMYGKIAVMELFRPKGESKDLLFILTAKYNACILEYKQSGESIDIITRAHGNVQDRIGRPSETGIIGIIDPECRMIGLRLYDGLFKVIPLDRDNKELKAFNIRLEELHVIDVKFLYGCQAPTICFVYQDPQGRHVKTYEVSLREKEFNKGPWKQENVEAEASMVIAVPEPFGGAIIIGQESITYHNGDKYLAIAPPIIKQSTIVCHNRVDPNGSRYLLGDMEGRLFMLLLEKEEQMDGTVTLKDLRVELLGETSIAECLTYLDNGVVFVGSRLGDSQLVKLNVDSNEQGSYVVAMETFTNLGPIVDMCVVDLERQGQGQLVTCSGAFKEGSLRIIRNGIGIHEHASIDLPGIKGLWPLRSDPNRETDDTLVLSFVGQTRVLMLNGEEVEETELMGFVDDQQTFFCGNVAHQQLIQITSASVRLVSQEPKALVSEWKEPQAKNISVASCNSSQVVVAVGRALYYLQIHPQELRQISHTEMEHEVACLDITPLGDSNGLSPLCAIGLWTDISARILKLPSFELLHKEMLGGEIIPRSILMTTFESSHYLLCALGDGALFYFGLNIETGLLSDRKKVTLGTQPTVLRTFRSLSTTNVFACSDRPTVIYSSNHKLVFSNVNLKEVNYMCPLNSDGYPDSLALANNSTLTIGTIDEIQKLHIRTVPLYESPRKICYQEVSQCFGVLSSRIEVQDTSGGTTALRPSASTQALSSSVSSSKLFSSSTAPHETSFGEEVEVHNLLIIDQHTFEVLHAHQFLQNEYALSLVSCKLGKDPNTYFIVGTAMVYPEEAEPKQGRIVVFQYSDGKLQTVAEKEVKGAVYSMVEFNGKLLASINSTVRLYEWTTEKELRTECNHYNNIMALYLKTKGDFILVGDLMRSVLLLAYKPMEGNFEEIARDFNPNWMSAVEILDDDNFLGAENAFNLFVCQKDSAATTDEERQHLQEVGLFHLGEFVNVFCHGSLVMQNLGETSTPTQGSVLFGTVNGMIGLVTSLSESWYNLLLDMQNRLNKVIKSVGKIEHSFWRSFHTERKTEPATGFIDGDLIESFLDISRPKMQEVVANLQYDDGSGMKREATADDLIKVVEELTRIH
UniProt Q9UBN7: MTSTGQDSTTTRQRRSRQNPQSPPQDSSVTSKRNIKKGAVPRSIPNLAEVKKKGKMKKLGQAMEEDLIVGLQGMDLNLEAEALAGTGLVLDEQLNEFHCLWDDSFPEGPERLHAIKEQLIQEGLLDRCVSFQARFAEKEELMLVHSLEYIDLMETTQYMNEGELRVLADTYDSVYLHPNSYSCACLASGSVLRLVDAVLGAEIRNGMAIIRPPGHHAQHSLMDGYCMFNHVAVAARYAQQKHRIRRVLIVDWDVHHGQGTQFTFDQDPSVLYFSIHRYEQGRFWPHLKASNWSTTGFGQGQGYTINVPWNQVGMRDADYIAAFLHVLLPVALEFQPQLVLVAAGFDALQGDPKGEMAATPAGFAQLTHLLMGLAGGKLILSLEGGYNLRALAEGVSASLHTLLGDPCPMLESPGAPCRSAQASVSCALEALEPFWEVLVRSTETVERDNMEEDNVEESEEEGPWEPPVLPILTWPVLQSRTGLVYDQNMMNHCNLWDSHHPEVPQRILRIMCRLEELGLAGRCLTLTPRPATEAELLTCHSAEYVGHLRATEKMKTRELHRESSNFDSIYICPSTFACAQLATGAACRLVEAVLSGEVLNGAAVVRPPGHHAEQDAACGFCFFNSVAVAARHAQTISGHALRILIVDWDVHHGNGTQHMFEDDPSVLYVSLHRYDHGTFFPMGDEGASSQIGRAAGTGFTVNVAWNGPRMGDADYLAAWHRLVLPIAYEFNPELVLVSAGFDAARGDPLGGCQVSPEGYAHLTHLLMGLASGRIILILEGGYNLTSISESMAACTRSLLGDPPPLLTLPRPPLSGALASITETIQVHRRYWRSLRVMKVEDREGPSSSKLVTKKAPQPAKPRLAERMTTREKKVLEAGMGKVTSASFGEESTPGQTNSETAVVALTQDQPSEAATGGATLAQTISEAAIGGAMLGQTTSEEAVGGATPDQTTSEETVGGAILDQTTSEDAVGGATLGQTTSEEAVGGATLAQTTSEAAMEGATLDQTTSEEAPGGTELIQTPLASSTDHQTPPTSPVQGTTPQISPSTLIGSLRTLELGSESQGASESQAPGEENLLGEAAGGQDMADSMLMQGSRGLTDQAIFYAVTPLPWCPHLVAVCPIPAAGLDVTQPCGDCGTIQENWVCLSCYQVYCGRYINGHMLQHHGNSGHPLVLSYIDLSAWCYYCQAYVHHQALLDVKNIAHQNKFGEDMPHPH
UniProt Q09028: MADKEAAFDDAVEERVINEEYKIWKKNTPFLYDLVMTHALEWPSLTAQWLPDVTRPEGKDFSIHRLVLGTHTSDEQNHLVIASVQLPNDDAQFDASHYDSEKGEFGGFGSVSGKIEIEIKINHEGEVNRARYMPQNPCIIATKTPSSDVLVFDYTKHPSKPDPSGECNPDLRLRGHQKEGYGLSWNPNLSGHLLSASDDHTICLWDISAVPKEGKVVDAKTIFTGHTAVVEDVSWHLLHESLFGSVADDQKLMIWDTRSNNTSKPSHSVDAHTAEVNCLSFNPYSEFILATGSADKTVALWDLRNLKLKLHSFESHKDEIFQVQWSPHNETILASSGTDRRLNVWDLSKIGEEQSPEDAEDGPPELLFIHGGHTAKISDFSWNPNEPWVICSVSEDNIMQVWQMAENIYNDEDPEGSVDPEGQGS
UniProt Q8TAQ2: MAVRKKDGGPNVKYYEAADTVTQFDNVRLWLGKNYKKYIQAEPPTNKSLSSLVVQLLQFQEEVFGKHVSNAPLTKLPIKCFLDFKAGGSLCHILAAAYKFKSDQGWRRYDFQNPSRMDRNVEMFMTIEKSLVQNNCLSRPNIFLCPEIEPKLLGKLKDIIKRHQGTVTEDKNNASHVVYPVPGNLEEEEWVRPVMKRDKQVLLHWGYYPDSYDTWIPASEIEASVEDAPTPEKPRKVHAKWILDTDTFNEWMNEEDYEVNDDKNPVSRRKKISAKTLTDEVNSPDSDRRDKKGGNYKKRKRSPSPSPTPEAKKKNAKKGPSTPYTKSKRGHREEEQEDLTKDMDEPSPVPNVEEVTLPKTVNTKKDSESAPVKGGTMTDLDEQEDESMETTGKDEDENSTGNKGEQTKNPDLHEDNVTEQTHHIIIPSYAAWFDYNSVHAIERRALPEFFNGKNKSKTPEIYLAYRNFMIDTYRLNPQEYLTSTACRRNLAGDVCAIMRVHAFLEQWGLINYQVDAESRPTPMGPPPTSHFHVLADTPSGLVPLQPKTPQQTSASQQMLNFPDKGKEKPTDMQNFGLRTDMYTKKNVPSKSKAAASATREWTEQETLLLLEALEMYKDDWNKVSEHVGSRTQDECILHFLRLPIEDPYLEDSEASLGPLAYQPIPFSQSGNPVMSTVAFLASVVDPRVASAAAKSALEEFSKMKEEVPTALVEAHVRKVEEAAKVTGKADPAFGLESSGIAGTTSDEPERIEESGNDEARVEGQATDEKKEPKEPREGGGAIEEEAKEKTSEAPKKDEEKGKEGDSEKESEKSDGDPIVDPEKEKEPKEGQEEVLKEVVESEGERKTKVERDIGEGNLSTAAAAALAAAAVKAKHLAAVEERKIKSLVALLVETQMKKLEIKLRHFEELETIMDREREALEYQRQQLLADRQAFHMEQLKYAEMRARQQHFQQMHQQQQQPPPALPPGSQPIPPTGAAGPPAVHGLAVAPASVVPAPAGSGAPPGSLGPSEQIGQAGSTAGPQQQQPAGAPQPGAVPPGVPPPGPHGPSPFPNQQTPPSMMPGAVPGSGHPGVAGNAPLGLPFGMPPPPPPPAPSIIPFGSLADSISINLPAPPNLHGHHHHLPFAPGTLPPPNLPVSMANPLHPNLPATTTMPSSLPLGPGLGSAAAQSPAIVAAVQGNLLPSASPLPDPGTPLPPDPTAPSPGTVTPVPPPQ

B1: PA2G4 (protein, UniProt Q9UQ80 1-394)
chain: MSGEDEQQEQTIAEDLVVTKYKMGGDIANRVLRSLVEASSSGVSVLSLCEKGDAMIMEETGKIFKKEKEMKKGIAFPTSISVNNCVCHFSPLKSDQDYILKEGDLVKIDLGVHVDGFIANVAHTFVVDVAQGTQVTGRKADVIKAAHLCAEAALRLVKPGNQNTQVTEAWNKVAHSFNCTPIEGMLSHQLKQHVIDGEKTIIQNPTDQQKKDHEKAEFEVHEVYAVDVLVSSGEGKAKDAGQRTTIYKRDPSKQYGLKMKTSRAFFSEVERRFDAMPFTLRAFEDEKKARMGVVECAKHELLQPFNVLYEKEGEFVAQFKFTVLLMPNGPMRITSGPFEPDLYKSEMEVQDAELKALLQSSASRKTQKKKKKKASKTAENATSGETLEENEAGD
B2: MATR3 (Matrin 3) (protein, UniProt P43243 1-847)
chain: MSKSFQQSSLSRDSQGHGRDLSAAGIGLLAAATQSLSMPASLGRMNQGTARLASLMNLGMSSSLNQQGAHSALSSASTSSHNLQSIFNIGSRGPLPLSSQHRGDADQASNILASFGLSARDLDELSRYPEDKITPENLPQILLQLKRRRTEEGPTLSYGRDGRSATREPPYRVPRDDWEEKRHFRRDSFDDRGPSLNPVLDYDHGSRSQESGYYDRMDYEDDRLRDGERCRDDSFFGETSHNYHKFDSEYERMGRGPGPLQERSLFEKKRGAPPSSNIEDFHGLLPKGYPHLCSICDLPVHSNKEWSQHINGASHSRRCQLLLEIYPEWNPDNDTGHTMGDPFMLQQSTNPAPGILGPPPPSFHLGGPAVGPRGNLGAGNGNLQGPRHMQKGRVETSRVVHIMDFQRGKNLRYQLLQLVEPFGVISNHLILNKINEAFIEMATTEDAQAAVDYYTTTPALVFGKPVRVHLSQKYKRIKKPEGKPDQKFDQKQELGRVIHLSNLPHSGYSDSAVLKLAEPYGKIKNYILMRMKSQAFIEMETREDAMAMVDHCLKKALWFQGRCVKVDLSEKYKKLVLRIPNRGIDLLKKDKSRKRSYSPDGKESPSDKKSKTDGSQKTESSTEGKEQEEKSGEDGEKDTKDDQTEQEPNMLLESEDELLVDEEEAAALLESGSSVGDETDLANLGDVASDGKKEPSDKAVKKDGSASAAAKKKLKKVDKIEELDQENEAALENGIKNEENTEPGAESSENADDPNKDTSENADGQSDENKDDYTIPDEYRIGPYQPNVPVGIDYVIPKTGFYCKLCSLFYTNEEVAKNTHCSSLPHYQKLKKFLNKLAEERRQKKET
B3: TAB3 (MAP3K7IP3) (protein, UniProt Q8N5C8 1-712)
chain: MAQSSPQLDIQVLHDLRQRFPEIPEGVVSQCMLQNNNNLEACCRALSQESSKYLYMEYHSPDDNRMNRNRLLHINLGIHSPSSYHPGDGAQLNGGRTLVHSSSDGHIDPQHAAGKQLICLVQEPHSAPAVVAATPNYNPFFMNEQNRSAATPPSQPPQQPSSMQTGMNPSAMQGPSPPPPPPSYMHIPRYSTNPITVTVSQNLPSGQTVPRALQILPQIPSNLYGSPGSIYIRQTSQSSSGRQTPQSTPWQSSPQGPVPHYSQRPLPVYPHQQNYQPSQYSPKQQQIPQSAYHSPPPSQCPSPFSSPQHQVQPSQLGHIFMPPSPSTTPPHPYQQGPPSYQKQGSHSVAYLPYTASSLSKGSMKKIEITVEPSQRPGTAINRSPSPISNQPSPRNQHSLYTATTPPSSSPSRGISSQPKPPFSVNPVYITYTQPTGPSCTPSPSPRVIPNPTTVFKITVGRATTENLLNLVDQEERSAAPEPIQPISVIPGSGGEKGSHKYQRSSSSGSDDYAYTQALLLHQRARMERLAKQLKLEKEELERLKSEVNGMEHDLMQRRLRRVSCTTAIPTPEEMTRLRSMNRQLQINVDCTLKEVDLLQSRGNFDPKAMNNFYDNIEPGPVVPPKPSKKDSSDPCTIERKARRISVTSKVQADIHDTQAAAADEHRTGSTQSPRTQPRDEDYEGAPWNCDSCTFLNHPALNRCEQCEMPRYT
B4: NONO (protein, UniProt Q15233 1-471)
chain: MQSNKTFNLEKQNHTPRKHHQHHHQQQHHQQQQQQPPPPPIPANGQQASSQNEGLTIDLKNFRKPGEKTFTQRSRLFVGNLPPDITEEEMRKLFEKYGKAGEVFIHKDKGFGFIRLETRTLAEIAKVELDNMPLRGKQLRVRFACHSASLTVRNLPQYVSNELLEEAFSVFGQVERAVVIVDDRGRPSGKGIVEFSGKPAARKALDRCSEGSFLLTTFPRPVTVEPMDQLDDEEGLPEKLVIKNQQFHKEREQPPRFAQPGSFEYEYAMRWKALIEMEKQQQDQVDRNIKEAREKLEMEMEAARHEHQVMLMRQDLMRRQEELRRMEELHNQEVQKRKQLELRQEEERRRREEEMRRQQEEMMRRQQEGFKGTFPDAREQEIRMGQMAMGGAMGINNRGAMPPAPVPAGTPAPPGPATMMPDGTLGLTPPTTERFGQAATMEGIGAIGGTPPAFNRAAPGAEFAPNKRRRY
B5: TAK1 (MAP3K7) (protein, UniProt O43318 1-606)
chain: MSTASAASSSSSSSAGEMIEAPSQVLNFEEIDYKEIEVEEVVGRGAFGVVCKAKWRAKDVAIKQIESESERKAFIVELRQLSRVNHPNIVKLYGACLNPVCLVMEYAEGGSLYNVLHGAEPLPYYTAAHAMSWCLQCSQGVAYLHSMQPKALIHRDLKPPNLLLVAGGTVLKICDFGTACDIQTHMTNNKGSAAWMAPEVFEGSNYSEKCDVFSWGIILWEVITRRKPFDEIGGPAFRIMWAVHNGTRPPLIKNLPKPIESLMTRCWSKDPSQRPSMEEIVKIMTHLMRYFPGADEPLQYPCQYSDEGQSNSATSTGSFMDIASTNTSNKSDTNMEQVPATNDTIKRLESKLLKNQAKQQSESGRLSLGASRGSSVESLPPTSEGKRMSADMSEIEARIAATTAYSKPKRGHRKTASFGNILDVPEIVISGNGQPRRRSIQDLTVTGTEPGQVSSRSSSPSVRMITTSGPTSEKPTRSHPWTPDDSTDTNGSDNSIPMAYLTLDHQLQPLAPCPNSKESMAVFEQHCKMAQEYMKVQTEIALLLQRKQELVAELDQDEKDQQNTSRLVQEHKKLLDENKSLSTYYQQCKKQLEVIRSQQQKRQGTS
B6: TAB1 (MAP3K7IP1) (protein, UniProt Q15750 1-504)
chain: MAAQRRSLLQSEQQPSWTDDLPLCHLSGVGSASNRSYSADGKGTESHPPEDSWLKFRSENNCFLYGVFNGYDGNRVTNFVAQRLSAELLLGQLNAEHAEADVRRVLLQAFDVVERSFLESIDDALAEKASLQSQLPEGVPQHQLPPQYQKILERLKTLEREISGGAMAVVAVLLNNKLYVANVGTNRALLCKSTVDGLQVTQLNVDHTTENEDELFRLSQLGLDAGKIKQVGIICGQESTRRIGDYKVKYGYTDIDLLSAAKSKPIIAEPEIHGAQPLDGVTGFLVLMSEGLYKALEAAHGPGQANQEIAAMIDTEFAKQTSLDAVAQAVVDRVKRIHSDTFASGGERARFCPRHEDMTLLVRNFGYPLGEMSQPTPSPAPAAGGRVYPVSVPYSSAQSTSKTSVTLSLVMPSQGQMVNGAHSASTLDEATPTLTNQSPTLTLQSTNTHTQSSSSSSDGGLFRSRPAHSLPPGEDGRVEPYVDFAEFYRLWSVDHGEQSVVTAP

target: FLAG-tagged human 14-3-3ε (human) (UniProt P62258); assay: affinity purification with mass spectrometry; anti-FLAG beads on lysates of HCC cells stably expressing FLAG-14-3-3ε, BLM 20 mU/ml 2 h (light) against untreated (Leu-d3, heavy); 4°C 4 h, washed with TBS, eluted with FLAG peptide, mixed 1:1, SDS-PAGE, nano-LC-MS/MS

binding, binds:
HDAC1 (from UniProt Q13547 1-482)
Damage-specific DNA binding protein 1 (from UniProt Q16531 1-1140)
HDAC6 (from UniProt Q9UBN7 1-1215)
RBBP4 (from UniProt Q09028 1-425)
SMARCC2 (from UniProt Q8TAQ2 1-1214)
B1
B2
B3
B4
B5
B6
